# The list shows a part of the results.
# B1: FimA (Actinomyces oris) (protein)
# chain: MHHHHHHSSGVDLGTENLYFQSNAETPNYGNIKTDATGSLVIHKHLTGGGKDIGTPTGTAQNADDKGPAVEGVVFTAYPITDINLKDPAGWDTISNLSRTGVPDSACANPAAPTLGAHQFGTPKVSPATTKEGLATITEMPVQAYLVCETTTPGDIVQKAKPFVVTIPHPNTAAGADGQWIYDVNVYPKNEAIDVDKTIQAQKLNGYGVGSLIKFPVESTAPTLDAKSFYKYFQLKDTLDERLSEVTATDVSLEGTPLQPTDYKVETKQQTVTVTFTAEGLKKIKAAPGKKVSAVFQGKVTKAGNGAITNRAQVISDTLYAEQPPTPETPPTDPENPPTSDEVISRWGDLSIKKVDTHQQGQTKAGLQGAQFQLYKAKNAYANTCSNEKEGAPIAINGQTTLTTDAQGAIDIKGLFISDSIDGADRDNQVNAMERCYVLVETKAPAGYVLPAGNGAATPVKVKAGEETTDNVTVENTKQSVPGLPLTG
# Experiments:
# Test in all cases: glycan array binding signal (z-score within array); higher = stronger binding
# Conditions in all cases: glycan notation: IUPAC condensed, linker removed
# [1] = target: Gal(b1-3)GlcNAc(b1-2)Man(a1-3)[Gal(b1-3)GlcNAc(b1-2)Man(a1-6)]Man(b1-4)GlcNAc(b1-4)[Fuc(a1-6)]GlcNAc
# How it was run: (§1)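 Arrays were curated from the Consortium for Functional Glycomics database, 3228 in total, and kept only where the protein sequence was available. Binding is expressed as a within-array Z-score. This score was averaged across arrays of the same protein sequence at different concentrations or buffers and across linkers, and negative values can be read as non-binding.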
# [2] = target: Gal(b1-3)GlcNAc(b1-2)Man(a1-3)[GlcNAc(b1-4)][Gal(b1-3)GlcNAc(b1-2)Man(a1-6)]Man(b1-4)GlcNAc(b1-4)GlcNAc
# How it was run: as §1
# [3] = target: Gal(b1-3)GlcNAc(b1-2)[Gal(b1-3)GlcNAc(b1-6)]Man(a1-6)[Gal(b1-3)GlcNAc(b1-2)Man(a1-3)]Man(b1-4)GlcNAc(b1-4)GlcNAc
# How it was run: as §1
# [4] = target: Gal(b1-3)GlcNAc(b1-3)Gal(b1-3)GlcNAc
# How it was run: as §1
# [5] = target: Gal(b1-3)GlcNAc(b1-3)Gal(b1-4)Glc
# How it was run: as §1
# [6] = target: Gal(b1-3)GlcNAc(b1-3)Gal(b1-4)GlcNAc
# How it was run: as §1
# [7] = target: Gal(b1-3)GlcNAc(b1-3)Gal(b1-4)GlcNAc(b1-2)Man(a1-3)[Gal(b1-3)GlcNAc(b1-3)Gal(b1-4)GlcNAc(b1-2)Man(a1-6)]Man(b1-4)GlcNAc(b1-4)GlcNAc
# How it was run: as §1
# [8] = target: Gal(b1-3)GlcNAc(b1-3)Gal(b1-4)GlcNAc(b1-2)[Gal(b1-3)GlcNAc(b1-3)Gal(b1-4)GlcNAc(b1-6)]Man(a1-6)[Gal(b1-3)GlcNAc(b1-3)Gal(b1-4)GlcNAc(b1-2)Man(a1-3)]Man(b1-4)GlcNAc(b1-4)[Fuc(a1-6)]GlcNAc
# How it was run: as §1
# [9] = target: Gal(b1-3)GlcNAc(b1-3)Gal(b1-4)GlcNAc(b1-3)Gal(b1-4)GlcNAc(b1-2)[Gal(b1-3)GlcNAc(b1-3)Gal(b1-4)GlcNAc(b1-3)Gal(b1-4)GlcNAc(b1-6)]Man(a1-6)[Gal(b1-3)GlcNAc(b1-3)Gal(b1-4)GlcNAc(b1-3)Gal(b1-4)GlcNAc(b1-2)Man(a1-3)]Man(b1-4)GlcNAc(b1-4)[Fuc(a1-6)]GlcNAc
# How it was run: as §1
# [10] = target: Gal(b1-3)GlcNAc(b1-3)Gal(b1-4)GlcNAc(b1-6)[Gal(b1-3)GlcNAc(b1-3)]Gal(b1-4)Glc
# How it was run: as §1
# [11] = target: Gal(b1-3)GlcNAc(b1-3)Gal(b1-4)[Fuc(a1-3)]GlcNAc
# How it was run: as §1
# [12] = target: Gal(b1-3)GlcNAc(b1-3)Gal(b1-4)[Fuc(a1-3)]GlcNAc(b1-6)[Gal(b1-3)GlcNAc(b1-3)]Gal(b1-4)Glc
# How it was run: as §1
# [13] = target: Gal(b1-3)GlcNAc(b1-3)GalNAc
# How it was run: as §1
# [14] = target: Gal(b1-3)GlcNAc(b1-6)Gal(b1-4)GlcNAc
# How it was run: as §1
# [15] = target: Gal(b1-3)GlcNAc(b1-6)GalNAc
# How it was run: as §1
# [16] = target: Gal(b1-3)GlcNAc(b1-6)[Gal(b1-3)]GalNAc
# How it was run: as §1
# Gal(b1-3)GlcNAc6S = target: Gal(b1-3)GlcNAc6S
# How it was run: as §1
# [17] = target: Gal(b1-3)[Fuc(a1-4)]GlcNAc
# How it was run: as §1
# [18] = target: Gal(b1-3)[Fuc(a1-4)]GlcNAc(b1-2)Man
# How it was run: as §1
# [19] = target: Gal(b1-3)[Fuc(a1-4)]GlcNAc(b1-2)Man(a1-3)[Gal(b1-3)[Fuc(a1-4)]GlcNAc(b1-2)Man(a1-6)]Man(b1-4)GlcNAc(b1-4)[Fuc(a1-6)]GlcNAc
# How it was run: as §1
# [20] = target: Gal(b1-3)[Fuc(a1-4)]GlcNAc(b1-3)Gal(b1-3)[Fuc(a1-4)]GlcNAc
# How it was run: as §1
# [21] = target: Gal(b1-3)[Fuc(a1-4)]GlcNAc(b1-3)Gal(b1-4)[Fuc(a1-3)]GlcNAc
# How it was run: as §1
# [22] = target: Gal(b1-3)[Fuc(a1-4)]GlcNAc(b1-6)GalNAc
# How it was run: as §1
# [23] = target: Gal(b1-3)[GlcNAc(b1-6)]GalNAc
# How it was run: as §1
# [24] = target: Gal(b1-3)[Neu5Ac(a2-6)]GalNAc
# How it was run: as §1
# [25] = target: Gal(b1-3)[Neu5Ac(a2-6)]GlcNAc(b1-4)Gal(b1-4)Glc
# How it was run: as §1
# [26] = target: Gal(b1-3)[Neu5Ac(b2-6)]GalNAc
# How it was run: as §1
# Gal(b1-4)Gal = target: Gal(b1-4)Gal
# How it was run: as §1
# [27] = target: Gal(b1-4)GalNAc(a1-3)[Fuc(a1-2)]Gal(b1-4)GlcNAc
# How it was run: as §1
# [28] = target: Gal(b1-4)GalNAc(b1-3)[Fuc(a1-2)]Gal(b1-4)GlcNAc
# How it was run: as §1
# Gal(b1-4)Glc = target: Gal(b1-4)Glc
# How it was run: as §1
# Gal(b1-4)Glc6S = target: Gal(b1-4)Glc6S
# How it was run: as §1
# Gal(b1-4)GlcNAc = target: Gal(b1-4)GlcNAc
# How it was run: as §1
# [29] = target: Gal(b1-4)GlcNAc(a1-6)Gal(b1-4)GlcNAc
# How it was run: as §1
# Gal(b1-4)GlcNAc(b1-2)Man = target: Gal(b1-4)GlcNAc(b1-2)Man
# How it was run: as §1
# [30] = target: Gal(b1-4)GlcNAc(b1-2)Man(a1-3)Man(b1-4)GlcNAc(b1-4)GlcNAc
# How it was run: as §1
# [31] = target: Gal(b1-4)GlcNAc(b1-2)Man(a1-3)[Gal(b1-4)GlcNAc(b1-2)Man(a1-6)]Man(b1-4)GlcNAc(b1-4)GlcNAc
# How it was run: as §1
binder,measurement,setting,value
B1,glycan array binding signal (z-score),[1],0.3
same,glycan array binding signal (z-score),[2],0.185
same,glycan array binding signal (z-score),[3],0.033
same,glycan array binding signal (z-score),[4],-0.948
same,glycan array binding signal (z-score),[5],-0.983
same,glycan array binding signal (z-score),[6],-0.749
same,glycan array binding signal (z-score),[7],-0.744
same,glycan array binding signal (z-score),[8],2.57
same,glycan array binding signal (z-score),[9],2
same,glycan array binding signal (z-score),[10],-0.645
same,glycan array binding signal (z-score),[11],-0.756
same,glycan array binding signal (z-score),[12],-0.23
same,glycan array binding signal (z-score),[13],0.226
same,glycan array binding signal (z-score),[14],-0.874
same,glycan array binding signal (z-score),[15],-0.286
same,glycan array binding signal (z-score),[16],-0.07
same,glycan array binding signal (z-score),Gal(b1-3)GlcNAc6S,-0.362
same,glycan array binding signal (z-score),[17],-0.412
same,glycan array binding signal (z-score),[18],0.024
same,glycan array binding signal (z-score),[19],0.774
same,glycan array binding signal (z-score),[20],-0.534
same,glycan array binding signal (z-score),[21],0.459
same,glycan array binding signal (z-score),[22],0.037
same,glycan array binding signal (z-score),[23],-0.815
same,glycan array binding signal (z-score),[24],-0.221
same,glycan array binding signal (z-score),[25],-0.489
same,glycan array binding signal (z-score),[26],-0.575
same,glycan array binding signal (z-score),Gal(b1-4)Gal,0.292
same,glycan array binding signal (z-score),[27],-0.354
same,glycan array binding signal (z-score),[28],0.048
same,glycan array binding signal (z-score),Gal(b1-4)Glc,-0.183
same,glycan array binding signal (z-score),Gal(b1-4)Glc6S,0.074
same,glycan array binding signal (z-score),Gal(b1-4)GlcNAc,-0.44
same,glycan array binding signal (z-score),[29],-0.746
same,glycan array binding signal (z-score),Gal(b1-4)GlcNAc(b1-2)Man,0.574
same,glycan array binding signal (z-score),[30],0.054
same,glycan array binding signal (z-score),[31],-0.3

# Part of the list above in a different format:
binder	measurement	setting	value
B1	glycan array binding signal (z-score)	[1]	0.3
same	glycan array binding signal (z-score)	[12]	-0.23
same	glycan array binding signal (z-score)	[28]	0.048

# Reference: the supplement of paper PMC8728848
